In publication PMC4086906:
These are yes or no findings as the source states them, for the method shown. In cells and extracts the contact can be indirect. Some binding calls cover weakened binding; strength is not graded here. For some assays here: Where a sequence is shown, tags or fusion partners need not be part of it.

By UniProt entry, the sequences of proteins in these tests, tags left out.
UniProt Q04724: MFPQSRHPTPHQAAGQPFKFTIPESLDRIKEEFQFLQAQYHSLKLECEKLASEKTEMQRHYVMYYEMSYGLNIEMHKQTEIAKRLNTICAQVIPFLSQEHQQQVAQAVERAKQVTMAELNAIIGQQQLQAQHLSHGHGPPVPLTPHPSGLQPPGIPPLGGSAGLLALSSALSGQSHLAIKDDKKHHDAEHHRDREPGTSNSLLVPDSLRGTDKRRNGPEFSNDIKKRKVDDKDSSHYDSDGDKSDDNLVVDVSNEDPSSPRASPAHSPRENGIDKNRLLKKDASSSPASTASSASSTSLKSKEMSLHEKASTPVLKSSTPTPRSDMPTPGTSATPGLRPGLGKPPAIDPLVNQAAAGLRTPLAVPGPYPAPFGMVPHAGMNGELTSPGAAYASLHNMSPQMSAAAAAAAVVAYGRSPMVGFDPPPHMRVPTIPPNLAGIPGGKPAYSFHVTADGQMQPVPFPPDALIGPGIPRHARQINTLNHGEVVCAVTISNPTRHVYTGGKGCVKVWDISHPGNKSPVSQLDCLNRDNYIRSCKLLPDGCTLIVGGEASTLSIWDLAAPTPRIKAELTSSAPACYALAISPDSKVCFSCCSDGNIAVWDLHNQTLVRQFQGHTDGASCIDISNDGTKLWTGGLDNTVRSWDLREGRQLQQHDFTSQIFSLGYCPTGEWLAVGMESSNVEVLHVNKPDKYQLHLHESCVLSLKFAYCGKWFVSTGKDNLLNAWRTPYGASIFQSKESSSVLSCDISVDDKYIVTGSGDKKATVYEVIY

Experiments:
[1] = target: full length GFP-tagged human TLE1 (human) (UniProt Q04724); assay: co-IP; A549 cells transfected with vector or GFP-TLE1; 1% Nonidet P-40 lysis buffer (20 mM Tris-HCl pH 7.4, 150 mM NaCl, 10% glycerol); immunoprecipitated with anti-GFP-agarose; blotted with anti-AES and anti-GFP
[2] = target: T1, N-terminally myc tagged cytoplasmic localized Bit1 (Bcl-2 inhibitor of transcription 1) (UniProt Q9Y3E5); assay: co-IP; A549 cells transfected with N-terminally myc tagged Bit1 with or without GFP-TLE1; 1% Nonidet P-40 lysis buffer (20 mM Tris-HCl pH 7.4, 150 mM NaCl, 10% glycerol); immunoprecipitated with anti-Myc-agarose; blotted with anti-AES and anti-myc
T1 sequence: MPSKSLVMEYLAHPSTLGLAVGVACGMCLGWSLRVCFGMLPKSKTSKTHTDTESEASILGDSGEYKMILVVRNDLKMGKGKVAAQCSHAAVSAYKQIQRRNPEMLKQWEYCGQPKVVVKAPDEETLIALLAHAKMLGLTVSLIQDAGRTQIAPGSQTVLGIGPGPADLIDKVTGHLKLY

B1: Amino-terminal Enhancer of Split (AES) protein (protein, UniProt Q08117 1-197)
chain: MMFPQSRHSGSSHLPQQLKFTTSDSCDRIKDEFQLLQAQYHSLKLECDKLASEKSEMQRHYVMYYEMSYGLNIEMHKQAEIVKRLNGICAQVLPYLSQEHQQQVLGAIERAKQVTAPELNSIIRQQLQAHQLSQLQALALPLTPLPVGLQPPSLPAVSAGTGLLSLSALGSQAHLSKEDKNGHDGDTHQEDDGEKSD
B1 was tested, and the binding [1] was “binds” and the binding [2] was “binds”.
